The text below walks through data of article PMC3171469, “Multiple ETS Family Proteins Regulate PF4 Gene Expression by Binding to the Same ETS Binding Site”.

The test system of data set [1] is GABPalpha + GABPgamma. The experiment in a line: EMSA. Particulars: 2 mM HEPES-NaOH pH 7.9, 5 mM KCl, 2% glycerol, 0.01 mM EDTA, 0.25 mM DTT, 0.1 mg/ml BSA, 5 ng/ul poly dI-dC, 50 fmol probe, 40 min at 4 C, 4% native gel, 0.5x TBE, protein translated in vitro. On the technique in general: Mobility shift assays separate free from complexed probe on a gel.
Data set [2] deals with GABPalpha + GABPbeta. The experiment in a line: EMSA. Particulars: 2 mM HEPES-NaOH pH 7.9, 5 mM KCl, 2% glycerol, 0.01 mM EDTA, 0.25 mM DTT, 0.1 mg/ml BSA, 5 ng/ul poly dI-dC, 50 fmol probe, 40 min at 4 C, 4% native gel, 0.5x TBE, protein translated in vitro.
Setting [3] is: mix of GABPalpha, beta and gamma, label: 32P as probe, unlabelled as competitor.

For at least one entry, the source does not settle the construct or the ends of the probe. No signal at the amounts used counts as a negative.

As for “CCCGGGTCGGTGGACTGGGCTG (double strand) [-51 ETSmut]”, the binding result in data set [1] (setting [3]) and in data set [2] (setting [3]) was “no binding” throughout.

As for “CCCGGGTTTCCGGACTGGGCTG (double strand) [-51 ETS]”, the binding result in data set [1] (band alpha/gamma, label: 32P) was “binds”; in data set [2] (band alpha/beta, label: 32P), “binds”.
